Reference: article PMC9600345
No constants are given. Whether binding was seen depends on the method and setting. Binding seen in cells or lysates may run through a third protein. A yes stands for co-enrichment or nearness to the bait. Other partners may have been found. No binding means not detected with the bait.

By UniProt entry, the sequences of proteins in these tests, tags left out.
UniProt P20581: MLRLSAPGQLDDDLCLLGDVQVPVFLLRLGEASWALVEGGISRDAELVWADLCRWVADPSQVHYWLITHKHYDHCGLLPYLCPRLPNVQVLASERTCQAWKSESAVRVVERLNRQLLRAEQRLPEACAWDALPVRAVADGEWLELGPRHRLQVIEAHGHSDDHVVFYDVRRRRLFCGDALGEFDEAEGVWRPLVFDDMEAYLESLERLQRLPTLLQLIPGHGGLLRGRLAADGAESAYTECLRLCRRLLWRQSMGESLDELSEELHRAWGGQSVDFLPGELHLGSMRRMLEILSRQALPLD
UniProt Q59638: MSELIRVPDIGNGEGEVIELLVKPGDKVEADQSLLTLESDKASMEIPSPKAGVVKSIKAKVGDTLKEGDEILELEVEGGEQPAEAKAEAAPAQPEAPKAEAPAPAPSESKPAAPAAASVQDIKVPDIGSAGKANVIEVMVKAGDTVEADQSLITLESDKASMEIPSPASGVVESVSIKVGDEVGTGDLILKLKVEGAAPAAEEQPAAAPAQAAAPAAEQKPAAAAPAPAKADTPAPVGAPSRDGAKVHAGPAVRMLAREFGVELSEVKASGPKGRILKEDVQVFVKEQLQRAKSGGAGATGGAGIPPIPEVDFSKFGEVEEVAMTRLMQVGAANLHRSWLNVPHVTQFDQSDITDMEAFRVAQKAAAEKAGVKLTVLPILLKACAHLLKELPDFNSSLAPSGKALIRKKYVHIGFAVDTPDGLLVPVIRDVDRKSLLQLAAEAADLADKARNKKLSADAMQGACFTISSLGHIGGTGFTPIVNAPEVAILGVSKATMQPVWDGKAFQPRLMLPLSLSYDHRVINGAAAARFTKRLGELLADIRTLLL
UniProt A0A0H2ZFD5: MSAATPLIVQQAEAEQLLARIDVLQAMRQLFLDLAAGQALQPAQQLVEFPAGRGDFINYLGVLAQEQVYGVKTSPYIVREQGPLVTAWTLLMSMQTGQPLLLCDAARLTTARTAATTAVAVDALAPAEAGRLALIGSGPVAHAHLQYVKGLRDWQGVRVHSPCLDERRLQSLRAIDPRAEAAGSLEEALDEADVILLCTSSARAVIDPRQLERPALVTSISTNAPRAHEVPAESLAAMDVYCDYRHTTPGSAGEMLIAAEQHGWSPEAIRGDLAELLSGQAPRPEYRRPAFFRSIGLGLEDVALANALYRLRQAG
UniProt P54291: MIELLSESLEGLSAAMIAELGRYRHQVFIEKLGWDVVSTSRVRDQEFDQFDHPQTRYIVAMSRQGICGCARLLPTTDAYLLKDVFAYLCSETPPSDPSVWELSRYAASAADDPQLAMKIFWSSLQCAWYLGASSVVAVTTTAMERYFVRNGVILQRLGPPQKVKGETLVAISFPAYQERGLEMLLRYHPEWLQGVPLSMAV
UniProt P54292: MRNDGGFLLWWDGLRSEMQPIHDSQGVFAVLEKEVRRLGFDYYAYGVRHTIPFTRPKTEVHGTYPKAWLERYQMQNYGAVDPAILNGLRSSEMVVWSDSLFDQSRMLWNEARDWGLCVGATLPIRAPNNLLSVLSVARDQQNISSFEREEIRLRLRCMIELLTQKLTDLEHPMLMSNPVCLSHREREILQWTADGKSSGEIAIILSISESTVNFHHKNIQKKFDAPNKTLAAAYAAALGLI
UniProt O54439: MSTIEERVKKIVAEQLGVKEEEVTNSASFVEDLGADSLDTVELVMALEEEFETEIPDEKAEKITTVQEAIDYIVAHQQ

B1: GcvH1 (protein, UniProt Q9I136 1-127)
chain: MSKLRFTTDHEWLRQDDDGLLTVGITAYAQDALGDVVFVQLPELGEHAAGSEVAVLESVKAASNILMPLDGEVVAINDALPDAPELVNQDPLGEAWFFRFRPADAGAWEKLLDQAAYDRLLNANADA
B2: MaiA (protein, UniProt P57109 1-212)
chain: MKLYTYYRSTSSYRVRIALALKGLDYQSLPVNLIRDGGEHRQPAYLALNPQGRVPALQVDEGELLIQSPAIIEYLEERYPQPALLSSDPLRRARERGVAALVGCDIHPLHNASVLNLLRQWGHDEEQVRQWIGHWVGQGLAAVEQLIGDQGWCFGDRPGLADVYLVPQLYAAERFGVALDAWPRIRRVADLAAAHPAFRQAHPANQPDTPAA
B3: GlyS (protein, UniProt Q02V73 1-684)
chain: MSAKDFLVELGTEELPPKALNSLGEAFLSGIEKGLKAAGLSYAAARFYAAPRRLAVLVEQLAVQQPDRTVNLDGPPLQAAFDASGNPTQAALGFAKKCGVDLQQIDKSGPKLRFSQTIAGQPAAGLLPGIVEASLNELPIPKRMRWAARREEFVRPTQWLVMLFGDDVVECEILAQKAGRESRGHRFHNPDNVRISSPAAYLEDLRGAHVLADFAERRELIAKRVAELAAEQQGSAIVPPSLLDEVTALVEWPVPLVCSFEERFLEVPQEALITTMQDNQKYFCLLDANGKLLPRFITVANVESKAPENIVSGNEKVVRPRLTDAEFFFKQDKKQPLESFNERLRNVVFQAQLGTVFEKAQRVSGLAAYIAERIGGNAQNAARAGILSKCDLATEMVGEFPEMQGIAGYYYATHGGEAEDVALALNEQYMPRGAGAELPSTLTGAAVAVADKLDTLVGIFGIGMLPTGSKDPYALRRAALGVLRILIEKQLDLDLVAAVNAAVEQYGDKVKAAGLAEQVLDFVFDRLRARYEDEGVDVAVYQSVRALKPSSPLDFDQRVQAVQAFRQLPEAEALAAANKRVSNILAKSEDEVPPNVDASLLVEAAEKALGSAVANAESEVAPLAAARDYRAALARLAALREPVDTFFADVMVNVDDAAVRANRYALLAKLRGSFLGVADISLLG
B4: GapA (protein, UniProt P27726 1-334)
chain: MTIRLAINGFGRIGRNVLRALYTGHYREQLQVVAINDLGDAAVNAHLFQYDSVHGHFPGEVEHDAESLRVMGDRIAVSAIRNPAELPWKSLGVDIVLECTGLFTSRDKAAAHLQAGAGKVLISAPGKDVEATVVYGVNHEVLRASHRIVSNASCTTNCLAPVAQVLHRELGIEHGLMTTIHAYTNDQNLSDVYHPDLYRARSATQSMIPTKTGAAEAVGLVLPELAGKLTGLAVRVPVINVSLVDLTVQVARDTSVDEVNRLLREASEGSPVLGYNTQPLVSVDFNHDPRSSIFDANHTKVSGRLVKAMAWYDNEWGFSNRMLDSALALAAARD
B5: NadB (protein, UniProt Q51363 1-538)
chain: MSQHYQHDVLVIGSGAAGLSLALTLPEHLRIAVLSKGELSQGSTYWAQGGVAAVLDDTDTVESHVEDTLVAGGGLCREDAVRFTVEHSREAIQWLIEQGVPFTRDEQHNHEEGSFEYHLTREGGHSHRRIIHAADATGAAIFNTLLAQARRRPNIELLSQRVAVDLITERKLGLPSKRCLGAYVLNRESGEVDTFRARFSVLASGGASKVYLYTSNPDGNSGDGIAMAWRAGCRVGNLEFNQFHPTCLYHPQAKSFLITEALRGEGALLRLPNGERFMPRFDPRGELAPRDIVARAIDHEMKRLGIDCVYLDISHKPAEFIKAHFPTVYERCLDFGIDITQQPIPVVPAAHYTCGGVLVDQHGHTDVPGLYAIGETTFTGLHGANRMASNSLLECFVYARSAAADMLQRLPGTPVPESLPSWDASQVTDSDEDVIIAHNWDELRRFMWDYVGIVRTNKRLQRAQHRVRLLLSEIDEFYSNYKVSRDLIELRNLALVAELIIRSAMQRRESRGLHYTLDYPDLLPEARDTILVPPIYGD
B6: PA14_03450 (protein, UniProt Q9I6M4 1-426)
chain: MSKTNESLLKRRQAAVPRGVGQIHPVVAERAENSTVWDVEGREYIDFAGGIAVLNTGHLHPKVIAAVQEQLGKLSHTCFQVLAYEPYIELAEEIAKRVPGDFPKKTLLVTSGSEAVENAVKIARAATGRAGVIAFTGAYHGRTMMTLGLTGKVVPYSAGMGLMPGGIFRALAPCELHGVSEDDSIASIERIFKNDAQPQDIAAIIIEPVQGEGGFYVNSKSFMQRLRALCDQHGILLIADEVQTGAGRTGTFFATEQLGIVPDLTTFAKSVGGGFPISGVAGKAEIMDAIAPGGLGGTYAGSPIACAAALAVLKVFEEEKLLERSQAVGERLKAGLREIQAKHKVIGDVRGLGSMVAIELFEGGDTHKPAAELVSKIVVRAREKGLILLSCGTYYNVIRFLMPVTIPDAQLEKGLAILAECFDELA
B7: AckA (protein, UniProt B7UYA0 1-394)
chain: MPSRNILVINCGSSSIKFALVNEAHSLFPLHGLAERLGSRDAVLRWKRGGDSDSLMIPNADHRAALAQLLPMVQNAAGGKLHGIGHRVVHGGELFTHATRIDDRVVEAIRATAPLAPLHNPANLQGIEAAMTLFPKLPHVAVFDTAFHQSLPEHAYRYALPEALYREHGVRRYGFHGTSHRYVSHRAAEMAGLAVGDSSWLSAHLGNGSSTCAIVNGQSLDTSMGLTPLEGLVMGTRSGDVDPNLHSHLARTLGWSLERIDSMLNNESGLLGLSDLSNDMRTLEQEREQGHPGAALAIEVFCYRLAKSLAAMSCALPQLDGVIFTGGIGENSPLVRAKTAAHLRLFDLRLDQEANARCVRGVAGPIQAAGHPRVLVIPTNEERQIALDTLALLD
B8: GroS (protein, UniProt Q02H54 1-97)
chain: MKLRPLHDRVVIRRSEEETKTAGGIVLPGSAAEKPNRGEVVAVGTGRVLDNGEVRALAVKVGDKVVFGPYSGSNAIKVDGEELLVMGESEILAVLED
B9: ThrB (enzyme, UniProt Q02DL4 1-316)
chain: MSVFTPLERSTLEAFLAPYDLGRLRDFRGIAEGSENSNFFVSLEHGEFVLTLVERGPVQDLPFFIELLDVLHEDGLPVPYALRTRDGEALRRLEGKPALLQPRLAGRHERQPNAHHCQEVGDLLGHLHAATRGRILERPSDRGLPWMLEQGANLAPRLPEQARALLAPALAEIAALDAERPALPRANLHADLFRDNVLFDGPHLAGLIDFYNACSGWMLYDLAITLNDWCSNADGSLDPARARALLAAYANRRPFTALEAEHWPSMLRVACVRFWLSRLIAAEAFAGQDVLIHDPAEFEMRLAQRQNVEIHLPFAL
B10: YbeY (enzyme, UniProt Q02SF0 1-160)
chain: MPLELDLQVASAAPDLPSEAQFRAWCELALRQRPESELTIRLVDEAEGLELNSTYRHKDYATNVLSFPADVPDELLDIPLLGDLVICAPVVAREALEQRKPLQAHWAHLVIHGCLHLLGYDHIDDAEAEEMETLERELLAELGHPDPYACDDEEPPSKEK

How the values were obtained:
[1] = target: eGFP-PqsE(WT) (Pseudomonas aeruginosa) (UniProt P20581); experiment: affinity purification with mass spectrometry; as a1 but eGFP-PqsE bait expressed from pUCP18 in ΔrhlR P. aeruginosa PA14 (no RhlR); GFP-Trap magnetic beads 1 h at 4°C; hits at least 2-fold enriched over eGFP alone in the same strain
[2] = target: eGFP-PqsE(WT) (Pseudomonas aeruginosa) (UniProt P20581); experiment: affinity purification with mass spectrometry; eGFP-PqsE bait expressed from pUCP18 in WT P. aeruginosa PA14; cryogenic grinding, no cross-linking; cleared lysate (500 ug, 1 mg/mL) on GFP-Trap magnetic beads 1 h at 4°C; 20 mM HEPES pH 7.4, 100 mM potassium acetate, 200 mM NaCl, 2 mM MgCl2, 1% Triton X-100, 0.1% Tween 20; label-free LC-MS/MS, biological triplicate; hits at least 2-fold enriched over eGFP alone
[3] = target: eGFP-PqsE(WT) (Pseudomonas aeruginosa) (UniProt P20581); experiment: affinity purification with mass spectrometry; as a1 but eGFP-PqsE bait expressed from pUCP18 in ΔrhlR P. aeruginosa PA14 (no RhlR); GFP-Trap magnetic beads 1 h at 4°C; hits at least 2-fold enriched over eGFP alone in the same strain; remark: listed apart in the source

Molecule | binding [1] | binding [2] | binding [3]
AceF (from UniProt Q59638 1-547) | binds | – | –
PA14_14020 (from UniProt A0A0H2ZFD5 1-315) (enzyme) | no binding (only in the ΔrhlR strain) | binds | –
GpsA (from UniProt Q02K99) (enzyme) | no binding (only in the ΔrhlR strain) | binds | –
ApeB (from UniProt Q02Q78) (enzyme) | no binding (only in the ΔrhlR strain) | binds | –
RhlI (from UniProt P54291 1-201) (enzyme) | binds | no binding (only in WT PA14, where RhlR is present) | –
RhlR (from UniProt P54292 1-241) (receptor) | – | binds | –
AcpP (from UniProt O54439 1-78) | no binding (only in the ΔrhlR strain) | binds | –
B1 | – | binds | no binding (only in the ΔrhlR strain)
B2 | – | binds | no binding (only in the ΔrhlR strain)
B3 | – | – | binds
B4 | – | – | binds
B5 | – | – | binds
B6 | – | – | binds
B7 | – | – | binds
B8 | – | – | binds
B9 | – | binds | no binding (only in the ΔrhlR strain)
B10 | – | binds | no binding (only in the ΔrhlR strain)
